This note sets out measurements from PMC4664969.

Amino acid sequences for entries named in this document (tags omitted).
UniProt Q8N6T7: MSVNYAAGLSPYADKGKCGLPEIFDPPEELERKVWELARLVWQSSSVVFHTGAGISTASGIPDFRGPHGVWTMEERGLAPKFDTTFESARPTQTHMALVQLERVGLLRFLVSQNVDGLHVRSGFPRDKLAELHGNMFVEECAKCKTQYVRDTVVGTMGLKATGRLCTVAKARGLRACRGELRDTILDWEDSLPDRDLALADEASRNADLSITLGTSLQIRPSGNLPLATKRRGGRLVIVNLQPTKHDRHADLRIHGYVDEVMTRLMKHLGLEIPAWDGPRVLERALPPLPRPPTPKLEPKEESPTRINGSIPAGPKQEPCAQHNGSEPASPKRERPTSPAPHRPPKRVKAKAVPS
UniProt Q09472: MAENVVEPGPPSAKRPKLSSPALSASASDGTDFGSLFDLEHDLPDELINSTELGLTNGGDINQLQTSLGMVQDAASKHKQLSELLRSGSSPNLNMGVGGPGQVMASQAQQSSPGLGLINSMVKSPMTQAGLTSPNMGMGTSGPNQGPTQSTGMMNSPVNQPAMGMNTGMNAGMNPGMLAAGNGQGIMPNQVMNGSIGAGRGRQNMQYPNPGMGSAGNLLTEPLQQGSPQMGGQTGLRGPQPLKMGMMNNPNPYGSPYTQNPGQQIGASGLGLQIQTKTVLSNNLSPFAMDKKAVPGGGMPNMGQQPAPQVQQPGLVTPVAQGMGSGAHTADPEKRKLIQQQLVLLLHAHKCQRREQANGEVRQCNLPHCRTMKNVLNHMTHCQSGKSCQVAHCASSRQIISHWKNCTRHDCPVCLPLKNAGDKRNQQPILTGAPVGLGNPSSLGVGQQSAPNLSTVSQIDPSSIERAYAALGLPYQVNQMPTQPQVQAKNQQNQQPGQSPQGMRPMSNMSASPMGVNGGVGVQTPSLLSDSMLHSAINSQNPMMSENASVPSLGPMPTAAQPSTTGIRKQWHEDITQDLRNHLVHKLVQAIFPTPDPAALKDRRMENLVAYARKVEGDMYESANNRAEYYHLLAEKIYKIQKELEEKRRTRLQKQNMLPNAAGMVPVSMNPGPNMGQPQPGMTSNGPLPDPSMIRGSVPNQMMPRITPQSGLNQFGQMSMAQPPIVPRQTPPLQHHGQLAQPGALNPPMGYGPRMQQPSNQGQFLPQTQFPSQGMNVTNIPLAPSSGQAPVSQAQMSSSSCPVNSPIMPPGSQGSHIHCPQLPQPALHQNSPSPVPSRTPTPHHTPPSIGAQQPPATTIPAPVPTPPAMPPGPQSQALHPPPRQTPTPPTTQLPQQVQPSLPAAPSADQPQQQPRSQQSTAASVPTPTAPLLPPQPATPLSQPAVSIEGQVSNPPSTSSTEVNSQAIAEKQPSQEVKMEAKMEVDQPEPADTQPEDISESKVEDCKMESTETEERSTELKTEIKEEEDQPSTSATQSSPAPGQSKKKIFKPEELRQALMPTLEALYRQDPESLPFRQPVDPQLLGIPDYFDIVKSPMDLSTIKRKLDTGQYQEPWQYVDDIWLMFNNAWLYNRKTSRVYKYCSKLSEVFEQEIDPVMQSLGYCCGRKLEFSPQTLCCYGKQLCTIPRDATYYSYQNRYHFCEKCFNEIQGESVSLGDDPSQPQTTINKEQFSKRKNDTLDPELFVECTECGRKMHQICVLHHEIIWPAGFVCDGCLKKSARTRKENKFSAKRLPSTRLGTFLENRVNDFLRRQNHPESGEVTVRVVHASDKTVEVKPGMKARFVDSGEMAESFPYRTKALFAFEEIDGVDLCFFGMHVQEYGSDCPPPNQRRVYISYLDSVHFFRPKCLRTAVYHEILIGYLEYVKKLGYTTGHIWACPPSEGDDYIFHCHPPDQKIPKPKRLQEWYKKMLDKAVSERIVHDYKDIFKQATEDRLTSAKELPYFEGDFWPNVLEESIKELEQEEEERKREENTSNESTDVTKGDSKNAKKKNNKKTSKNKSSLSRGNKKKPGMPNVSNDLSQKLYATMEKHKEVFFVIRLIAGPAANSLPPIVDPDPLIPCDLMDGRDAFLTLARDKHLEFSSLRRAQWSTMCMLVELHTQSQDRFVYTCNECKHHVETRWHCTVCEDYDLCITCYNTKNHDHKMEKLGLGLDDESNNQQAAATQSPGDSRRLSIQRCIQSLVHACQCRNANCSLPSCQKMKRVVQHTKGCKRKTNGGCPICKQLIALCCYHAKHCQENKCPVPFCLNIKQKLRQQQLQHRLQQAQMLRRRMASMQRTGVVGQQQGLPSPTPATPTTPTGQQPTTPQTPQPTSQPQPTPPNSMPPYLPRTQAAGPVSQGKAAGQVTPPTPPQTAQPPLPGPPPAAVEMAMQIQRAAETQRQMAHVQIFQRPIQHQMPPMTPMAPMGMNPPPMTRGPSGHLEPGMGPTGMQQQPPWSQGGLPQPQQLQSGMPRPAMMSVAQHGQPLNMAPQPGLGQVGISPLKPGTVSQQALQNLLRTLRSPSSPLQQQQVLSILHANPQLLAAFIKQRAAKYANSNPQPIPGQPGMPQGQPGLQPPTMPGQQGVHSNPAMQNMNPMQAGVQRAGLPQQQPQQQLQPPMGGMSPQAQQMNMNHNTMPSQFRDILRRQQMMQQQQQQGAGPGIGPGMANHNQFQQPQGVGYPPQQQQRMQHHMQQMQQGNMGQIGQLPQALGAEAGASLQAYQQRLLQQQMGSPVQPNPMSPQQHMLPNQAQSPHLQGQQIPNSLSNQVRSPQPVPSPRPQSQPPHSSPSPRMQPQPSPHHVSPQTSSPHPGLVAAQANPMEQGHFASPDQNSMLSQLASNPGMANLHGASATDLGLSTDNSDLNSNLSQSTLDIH
UniProt Q9NRC8: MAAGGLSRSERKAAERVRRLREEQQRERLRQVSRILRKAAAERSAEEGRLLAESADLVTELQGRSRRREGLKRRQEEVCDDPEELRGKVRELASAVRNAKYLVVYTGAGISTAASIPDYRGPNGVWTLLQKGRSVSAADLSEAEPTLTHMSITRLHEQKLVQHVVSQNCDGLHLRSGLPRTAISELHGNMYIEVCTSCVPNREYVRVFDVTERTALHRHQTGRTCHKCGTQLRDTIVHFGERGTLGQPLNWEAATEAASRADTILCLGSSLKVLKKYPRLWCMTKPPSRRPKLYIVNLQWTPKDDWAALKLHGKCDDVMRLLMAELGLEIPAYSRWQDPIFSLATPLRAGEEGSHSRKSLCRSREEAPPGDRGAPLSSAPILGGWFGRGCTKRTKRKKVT

Experiment [1] concerns the target T1, Myc-tagged glucokinase regulatory protein (GKRP), wild type (human) (UniProt Q14397).
T1 sequence: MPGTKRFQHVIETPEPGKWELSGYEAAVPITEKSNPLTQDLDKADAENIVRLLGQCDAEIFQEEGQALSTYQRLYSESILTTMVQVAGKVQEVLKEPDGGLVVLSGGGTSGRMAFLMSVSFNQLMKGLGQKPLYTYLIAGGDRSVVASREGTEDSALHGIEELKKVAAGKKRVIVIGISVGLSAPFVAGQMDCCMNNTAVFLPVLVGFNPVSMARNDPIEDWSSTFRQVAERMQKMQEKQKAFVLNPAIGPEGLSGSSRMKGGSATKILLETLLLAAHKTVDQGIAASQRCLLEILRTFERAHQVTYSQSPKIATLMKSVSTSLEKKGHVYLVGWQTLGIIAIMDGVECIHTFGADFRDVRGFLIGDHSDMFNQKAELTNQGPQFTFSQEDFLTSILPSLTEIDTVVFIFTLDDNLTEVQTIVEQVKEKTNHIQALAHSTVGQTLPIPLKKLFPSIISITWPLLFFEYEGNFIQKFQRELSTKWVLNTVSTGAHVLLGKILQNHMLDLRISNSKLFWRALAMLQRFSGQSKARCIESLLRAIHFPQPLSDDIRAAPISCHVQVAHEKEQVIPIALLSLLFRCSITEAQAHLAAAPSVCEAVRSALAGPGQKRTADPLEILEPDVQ
The experiment in a line: co-IP; HeLa cells cotransfected with the expression plasmids, lysed after 36 h (20 mM HEPES pH 7.4, 0.5% NP-40, 150 mM NaCl, 0.25% deoxycholate, 1 mM EDTA, TSA, NAM); 1 ug antibody overnight, protein G agarose 2 h at 4 C; immunoblot (GK-GKRP: IP anti-Myc or anti-V5, blot anti-His or anti-Myc).

For experiment [2], the target named is T1, Myc-tagged glucokinase regulatory protein (GKRP), wild type (human). The description is as above. The source holds these as a separate data set.

Read-outs that look alike come from different tables or passages of the source. No constants are given. Whether binding was seen depends on the method and setting. Binding seen in cells or lysates may run through a third protein. Some binding calls cover weakened binding; strength is not graded here. Where a sequence is shown, tags or fusion partners need not be part of it.

Regarding “FLAG-tagged SIRT6 (from UniProt Q8N6T7 1-355) (enzyme)”, the binding entry in experiment [1] is given as “binds”.
As for “p300 (EP300) (from UniProt Q09472 1-2414) (enzyme)”, the binding entry in experiment [1] is recorded as “binds”.
Consider “FLAG-tagged SIRT7 (from UniProt Q9NRC8 1-400) (enzyme)”, for which, in experiment [1], the binding entry was “binds”.

B1: FLAG-tagged SIRT4 (enzyme, UniProt Q9Y6E7 29-314)
chain: IGLFVPASPPLDPEKVKELQRFITLSKRLLVMTGAGISTESGIPDYRSEKVGLYARTDRRPIQHGDFVRSAPIRQRYWARNFVGWPQFSSHQPNPAHWALSTWEKLGKLYWLVTQNVDALHTKAGSRRLTELHGCMDRVLCLDCGEQTPRGVLQERFQVLNPTWSAEAHGLAPDGDVFLSEEQVRSFQVPTCVQCGGHLKPDVVFFGDTVNPDKVDFVHKRVKEADSLLVVGSSLQVYSGYRFILTAWEKKLPIAILNIGPTRSDDLACLKLNSRCGELLPLIDPC
Consider B1, for which the binding result in experiment [2] is listed as “binds”.

B2: Flag-tagged SIRT2 (enzyme, UniProt Q8IXJ6 1-389)
chain: MAEPDPSHPLETQAGKVQEAQDSDSDSEGGAAGGEADMDFLRNLFSQTLSLGSQKERLLDELTLEGVARYMQSERCRRVICLVGAGISTSAGIPDFRSPSTGLYDNLEKYHLPYPEAIFEISYFKKHPEPFFALAKELYPGQFKPTICHYFMRLLKDKGLLLRCYTQNIDTLERIAGLEQEDLVEAHGTFYTSHCVSASCRHEYPLSWMKEKIFSEVTPKCEDCQSLVKPDIVFFGESLPARFFSCMQSDFLKVDLLLVMGTSLQVQPFASLISKAPLSTPRLLINKEKAGQSDPFLGMIMGLGGGMDFDSKKAYRDVAWLGECDQGCLALAELLGWKKELEDLVRREHASIDAQSGAGVPNPSTSASPKKSPPPAKDEARTTEREKPQ
Turning to B2, in experiment [2], the binding result is “binds”.
